# Test results taken from the supplement of paper PMC12823440, “Inhibitors supercharge kinase turnover through native proteolytic circuits” (Nature, 2025).
# Sequences of proteins named here, by UniProt entry; tags and fusion partners are left off. A change or cut given only in a name is not applied to a line headed by its entry.
# UniProt Q06187: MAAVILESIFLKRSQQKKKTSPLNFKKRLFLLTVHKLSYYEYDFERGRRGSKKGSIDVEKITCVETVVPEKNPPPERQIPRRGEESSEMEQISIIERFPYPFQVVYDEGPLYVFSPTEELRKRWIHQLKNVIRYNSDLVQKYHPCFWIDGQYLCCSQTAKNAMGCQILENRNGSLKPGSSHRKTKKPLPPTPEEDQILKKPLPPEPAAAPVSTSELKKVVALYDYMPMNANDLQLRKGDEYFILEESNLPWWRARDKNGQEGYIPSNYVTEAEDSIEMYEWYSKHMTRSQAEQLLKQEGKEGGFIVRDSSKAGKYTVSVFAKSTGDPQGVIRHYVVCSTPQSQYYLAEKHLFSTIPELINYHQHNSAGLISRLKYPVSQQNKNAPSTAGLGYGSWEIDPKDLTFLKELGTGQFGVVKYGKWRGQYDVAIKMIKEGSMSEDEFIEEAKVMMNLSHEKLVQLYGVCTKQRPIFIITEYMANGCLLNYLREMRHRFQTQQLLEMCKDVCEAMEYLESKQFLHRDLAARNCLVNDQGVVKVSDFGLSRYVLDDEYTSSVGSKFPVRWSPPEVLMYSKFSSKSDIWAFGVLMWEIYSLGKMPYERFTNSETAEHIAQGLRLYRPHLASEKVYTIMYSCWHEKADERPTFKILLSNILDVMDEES
# UniProt Q9UQM7, whole entry: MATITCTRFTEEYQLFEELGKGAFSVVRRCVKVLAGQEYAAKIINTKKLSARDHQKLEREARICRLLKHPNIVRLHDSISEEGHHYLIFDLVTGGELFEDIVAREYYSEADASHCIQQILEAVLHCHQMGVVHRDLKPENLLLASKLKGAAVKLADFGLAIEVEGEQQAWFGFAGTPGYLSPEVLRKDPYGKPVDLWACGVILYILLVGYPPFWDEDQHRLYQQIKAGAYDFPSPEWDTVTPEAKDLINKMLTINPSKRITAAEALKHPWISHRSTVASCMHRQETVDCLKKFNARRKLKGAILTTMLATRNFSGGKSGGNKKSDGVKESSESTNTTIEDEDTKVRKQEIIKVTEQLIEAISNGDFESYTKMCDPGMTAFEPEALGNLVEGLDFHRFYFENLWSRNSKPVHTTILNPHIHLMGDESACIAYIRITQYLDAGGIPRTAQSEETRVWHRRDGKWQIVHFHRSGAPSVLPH
# UniProt Q13555: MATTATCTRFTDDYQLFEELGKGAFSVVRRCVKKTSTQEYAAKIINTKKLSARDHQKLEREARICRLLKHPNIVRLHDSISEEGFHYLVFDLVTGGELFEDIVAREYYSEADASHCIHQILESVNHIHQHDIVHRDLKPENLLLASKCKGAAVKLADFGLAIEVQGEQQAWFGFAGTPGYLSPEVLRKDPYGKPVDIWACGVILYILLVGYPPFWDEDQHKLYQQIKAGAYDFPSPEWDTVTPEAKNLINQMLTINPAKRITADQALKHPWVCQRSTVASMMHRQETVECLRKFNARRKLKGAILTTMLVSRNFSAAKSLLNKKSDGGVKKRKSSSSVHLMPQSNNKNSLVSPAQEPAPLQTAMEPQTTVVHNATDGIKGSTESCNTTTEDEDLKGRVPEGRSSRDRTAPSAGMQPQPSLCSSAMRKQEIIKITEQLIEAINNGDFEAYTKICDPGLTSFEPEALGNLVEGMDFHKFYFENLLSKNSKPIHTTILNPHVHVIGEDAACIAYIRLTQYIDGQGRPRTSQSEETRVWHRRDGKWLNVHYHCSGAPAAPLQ
# UniProt Q15131: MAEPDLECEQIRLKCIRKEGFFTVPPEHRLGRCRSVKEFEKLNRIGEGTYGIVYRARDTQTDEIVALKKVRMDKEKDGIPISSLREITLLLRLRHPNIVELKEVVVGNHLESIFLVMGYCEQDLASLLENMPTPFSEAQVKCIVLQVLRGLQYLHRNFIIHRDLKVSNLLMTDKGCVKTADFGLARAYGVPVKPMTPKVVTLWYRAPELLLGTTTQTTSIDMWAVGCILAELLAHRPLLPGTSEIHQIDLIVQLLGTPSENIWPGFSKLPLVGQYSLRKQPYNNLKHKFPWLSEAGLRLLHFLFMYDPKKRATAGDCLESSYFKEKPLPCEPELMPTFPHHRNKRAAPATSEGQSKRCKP
# UniProt Q00526: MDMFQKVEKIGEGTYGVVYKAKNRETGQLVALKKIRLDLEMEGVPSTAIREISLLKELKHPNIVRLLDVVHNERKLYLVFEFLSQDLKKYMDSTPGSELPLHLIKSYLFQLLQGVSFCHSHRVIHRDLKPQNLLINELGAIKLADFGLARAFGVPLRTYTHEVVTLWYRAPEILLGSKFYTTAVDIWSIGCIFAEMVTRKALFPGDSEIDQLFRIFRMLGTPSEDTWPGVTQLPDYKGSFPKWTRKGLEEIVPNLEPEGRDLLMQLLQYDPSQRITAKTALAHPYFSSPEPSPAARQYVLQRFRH
# UniProt P11802: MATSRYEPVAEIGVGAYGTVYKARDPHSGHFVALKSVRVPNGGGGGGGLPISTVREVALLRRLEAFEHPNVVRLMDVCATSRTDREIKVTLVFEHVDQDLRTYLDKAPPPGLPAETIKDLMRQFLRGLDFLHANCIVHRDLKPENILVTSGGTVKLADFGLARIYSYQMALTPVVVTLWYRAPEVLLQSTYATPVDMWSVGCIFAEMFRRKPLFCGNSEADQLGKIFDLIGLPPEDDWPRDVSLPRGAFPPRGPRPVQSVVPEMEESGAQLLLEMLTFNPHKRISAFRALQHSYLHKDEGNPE
# UniProt Q00535, whole entry, looked up: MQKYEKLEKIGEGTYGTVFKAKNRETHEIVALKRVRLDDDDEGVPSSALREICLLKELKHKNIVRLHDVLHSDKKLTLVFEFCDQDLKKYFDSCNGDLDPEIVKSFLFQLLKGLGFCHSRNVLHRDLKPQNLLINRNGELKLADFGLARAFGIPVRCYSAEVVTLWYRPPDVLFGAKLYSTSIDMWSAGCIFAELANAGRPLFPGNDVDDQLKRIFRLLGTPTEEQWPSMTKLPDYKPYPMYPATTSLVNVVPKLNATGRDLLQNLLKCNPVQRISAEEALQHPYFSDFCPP
# UniProt Q00534, whole entry: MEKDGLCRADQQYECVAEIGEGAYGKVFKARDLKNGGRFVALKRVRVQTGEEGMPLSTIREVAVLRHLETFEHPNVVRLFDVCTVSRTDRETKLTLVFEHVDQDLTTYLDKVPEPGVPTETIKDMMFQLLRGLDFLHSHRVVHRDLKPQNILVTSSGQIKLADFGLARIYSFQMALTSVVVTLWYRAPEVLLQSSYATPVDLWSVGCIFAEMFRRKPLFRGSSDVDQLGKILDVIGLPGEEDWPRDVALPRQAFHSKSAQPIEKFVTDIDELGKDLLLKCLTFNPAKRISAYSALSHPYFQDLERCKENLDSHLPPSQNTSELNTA
# This is one part of the list. The calls rarely recur for the same compound in another form.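 Kinases, fused to nanoluciferase, were expressed in K562 cells; luminescence was measured every 4 h from 2 to 18 h as percent of control (DMSO = 100%, positive control = 0%). A time point is decreased if signal falls significantly (2 sigma). Hits were called by the authors by a rule that is not shown; the count of time points alone does not decide it.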
# Tests used:
# Assay in all cases: kinase-Nluc reporter destabilization hit call (1 = scored as downregulated) (binary); higher = compound decreases kinase abundance
# Settings in all cases: K562; 2-18 h
# [1] = tested on: BRAF_V600E
# [2] = molecular target: BTK (UniProt Q06187)
# [3] = molecular target: CAMK2A (UniProt Q9UQM7)
# [4] = molecular target: CAMK2G (UniProt Q13555)
# [5] = molecular target: CDK10 (UniProt Q15131)
# [6] = molecular target: CDK2 (UniProt P24941)
# [7] = molecular target: CDK3 (UniProt Q00526)
# [8] = molecular target: CDK4 (UniProt P11802)
# [9] = molecular target: CDK5 (UniProt Q00535)
# [10] = molecular target: CDK6 (UniProt Q00534)
SMILES,kinase-Nluc reporter destabilization hit call [1],kinase-Nluc reporter destabilization hit call [2],kinase-Nluc reporter destabilization hit call [3],kinase-Nluc reporter destabilization hit call [4],kinase-Nluc reporter destabilization hit call [5],kinase-Nluc reporter destabilization hit call [6],kinase-Nluc reporter destabilization hit call [7],kinase-Nluc reporter destabilization hit call [8],kinase-Nluc reporter destabilization hit call [9],kinase-Nluc reporter destabilization hit call [10]
COc1ccc(C(=O)c2cn(C(C)C)c3ncnc(N)c23)cc1NC(=O)Nc1ccc(Cl)cc1Cl (10 µM),inactive: 0,inactive: 0,inactive: 0,inactive: 0,inactive: 0,inactive: 0,inactive: 0,inactive: 0,inactive: 0,inactive: 0
O=c1cc(-c2ccc(O)cc2)oc2cc(O)c(O)c(O)c12 [Scutellarein] (10 µM),inactive: 0,inactive: 0,inactive: 0,inactive: 0,inactive: 0,inactive: 0,inactive: 0,inactive: 0,inactive: 0,inactive: 0
O=c1sn(-c2cccc3ccccc23)c(=O)n1Cc1ccccc1 [Tideglusib] (10 µM),inactive: 0,inactive: 0,inactive: 0,inactive: 0,inactive: 0,inactive: 0,inactive: 0,inactive: 0,inactive: 0,inactive: 0
C=CC(=O)Nc1cccc(Nc2nc(Nc3ccc(Oc4ccnc(C(=O)NC)c4)cc3)ncc2F)c1 (2.5 µM),inactive: 0,inactive: 0,inactive: 0,inactive: 0,inactive: 0,inactive: 0,inactive: 0,inactive: 0,inactive: 0,inactive: 0
CC(C)(C)NS(=O)(=O)c1cncc(-c2cc(F)c3nc(N)nn3c2)c1 (10 µM),inactive: 0,inactive: 0,inactive: 0,inactive: 0,inactive: 0,inactive: 0,inactive: 0,inactive: 0,inactive: 0,inactive: 0
CNS(=O)(=O)Nc1nccc(Cc2c(C)c3ccc(Oc4ncccn4)cc3oc2=O)c1F (10 µM),inactive: 0,inactive: 0,inactive: 0,inactive: 0,inactive: 0,inactive: 0,inactive: 0,inactive: 0,inactive: 0,inactive: 0
COc1ncc2cc(C(=O)Nc3cc(C(=O)NCc4cccc(Cl)c4)ccc3Cl)c(=O)[nH]c2n1 (2.5 µM),inactive: 0,inactive: 0,inactive: 0,inactive: 0,inactive: 0,inactive: 0,inactive: 0,inactive: 0,inactive: 0,inactive: 0
O=C1c2cccc(O)c2C(=O)c2c(O)cccc21 [Danthron] (10 µM),inactive: 0,inactive: 0,inactive: 0,inactive: 0,inactive: 0,inactive: 0,inactive: 0,inactive: 0,inactive: 0,inactive: 0
CC[C@@H]1CN(C(=O)NCC(F)(F)F)C[C@@H]1c1cnc2cnc3[nH]ccc3n12 [Upadacitinib] (10 µM),inactive: 0,inactive: 0,inactive: 0,inactive: 0,inactive: 0,inactive: 0,inactive: 0,inactive: 0,inactive: 0,inactive: 0
OCCC#Cc1nc(-c2ccc(F)cc2)c(-c2ccncc2)n1CCCc1ccccc1 (2.5 µM),inactive: 0,inactive: 0,inactive: 0,inactive: 0,inactive: 0,inactive: 0,inactive: 0,inactive: 0,inactive: 0,inactive: 0
C=CCN(/C=C1/C(=O)O[C@H](COC)[C@@]2(C)C1=C(O)C(=O)C1=C2[C@H](OC(C)=O)C[C@]2(C)C(=O)CC[C@@H]12)CC=C [Sonolisib] (2.5 µM),inactive: 0,inactive: 0,inactive: 0,inactive: 0,inactive: 0,inactive: 0,inactive: 0,inactive: 0,inactive: 0,inactive: 0
CC(=O)Nc1nc(C)c(-c2cc3c(c(S(C)(=O)=O)c2)C(=O)N([C@@H](C)C2CC2)C3)s1 (2.5 µM),inactive: 0,inactive: 0,inactive: 0,inactive: 0,inactive: 0,inactive: 0,inactive: 0,inactive: 0,inactive: 0,inactive: 0
COc1ccc2c(c1)C[C@H](C(=O)Nc1ccc(-c3cn[nH]c3)cc1OCCN(C)C)CO2 [Chroman 1] (10 µM),inactive: 0,inactive: 0,inactive: 0,inactive: 0,inactive: 0,inactive: 0,inactive: 0,inactive: 0,inactive: 0,inactive: 0
O=C1NC(=O)C(c2ccccc2[N+](=O)[O-])=C1Nc1ccc(O)c(Cl)c1 (10 µM),inactive: 0,inactive: 0,inactive: 0,inactive: 0,inactive: 0,inactive: 0,inactive: 0,inactive: 0,inactive: 0,inactive: 0
Cc1cc(Nc2ncc(Cl)c(Nc3ccccc3S(=O)(=O)C(C)C)n2)c(OC(C)C)cc1C1CCN(CC(=O)NCCNc2cccc3c2C(=O)N(C2CCC(=O)NC2=O)C3=O)CC1 (stereo not given) (10 µM),inactive: 0,inactive: 0,inactive: 0,inactive: 0,inactive: 0,inactive: 0,inactive: 0,inactive: 0,inactive: 0,active: 1
COc1cc(-c2cc(-c3cccc(O)c3)cnc2N)cc(OC)c1OC (2.5 µM),inactive: 0,inactive: 0,inactive: 0,inactive: 0,inactive: 0,inactive: 0,inactive: 0,inactive: 0,inactive: 0,inactive: 0

# A second format for some results above.
SMILES	kinase-Nluc reporter destabilization hit call [1]	kinase-Nluc reporter destabilization hit call [2]	kinase-Nluc reporter destabilization hit call [3]	kinase-Nluc reporter destabilization hit call [4]	kinase-Nluc reporter destabilization hit call [5]	kinase-Nluc reporter destabilization hit call [6]	kinase-Nluc reporter destabilization hit call [7]	kinase-Nluc reporter destabilization hit call [8]	kinase-Nluc reporter destabilization hit call [9]	kinase-Nluc reporter destabilization hit call [10]
COc1ncc2cc(C(=O)Nc3cc(C(=O)NCc4cccc(Cl)c4)ccc3Cl)c(=O)[nH]c2n1 (2.5 µM)	inactive: 0	inactive: 0	inactive: 0	inactive: 0	inactive: 0	inactive: 0	inactive: 0	inactive: 0	inactive: 0	inactive: 0
O=C1c2cccc(O)c2C(=O)c2c(O)cccc21 [Danthron] (10 µM)	inactive: 0	inactive: 0	inactive: 0	inactive: 0	inactive: 0	inactive: 0	inactive: 0	inactive: 0	inactive: 0	inactive: 0

# (continued)

SMILES,kinase-Nluc reporter destabilization hit call [1],kinase-Nluc reporter destabilization hit call [2],kinase-Nluc reporter destabilization hit call [3],kinase-Nluc reporter destabilization hit call [4],kinase-Nluc reporter destabilization hit call [5],kinase-Nluc reporter destabilization hit call [6],kinase-Nluc reporter destabilization hit call [7],kinase-Nluc reporter destabilization hit call [8],kinase-Nluc reporter destabilization hit call [9],kinase-Nluc reporter destabilization hit call [10]
CN(C)C(=O)c1cc2cnc(Nc3ccc(NC(=O)C4(C(=O)Nc5ccc(F)cc5)CC4)cc3)nc2n1C1CCCC1 (2 µM),inactive: 0,inactive: 0,inactive: 0,inactive: 0,inactive: 0,inactive: 0,inactive: 0,inactive: 0,inactive: 0,inactive: 0
O=C1C(=Cc2ccc(O)c(O)c2)Oc2ccccc21 (2.5 µM),inactive: 0,inactive: 0,inactive: 0,inactive: 0,inactive: 0,inactive: 0,inactive: 0,inactive: 0,inactive: 0,inactive: 0
C[C@H]1CNC(=O)c2cnn3ccc(nc23)N[C@H](C)c2cc(F)ccc2O1 [Repotrectinib] (2.5 µM),inactive: 0,inactive: 0,inactive: 0,inactive: 0,inactive: 0,inactive: 0,inactive: 0,inactive: 0,inactive: 0,inactive: 0
Cc1nc(Nc2ncc(C(=O)Nc3c(C)cccc3Cl)s2)cc(N2CCN(C(=O)CCCCCCC(=O)N[C@H](C(=O)N3C[C@H](O)C[C@H]3C(=O)NCc3ccc(-c4scnc4C)cc3)C(C)(C)C)CC2)n1 (2.5 µM),inactive: 0,active: 1,inactive: 0,inactive: 0,inactive: 0,inactive: 0,inactive: 0,inactive: 0,inactive: 0,inactive: 0
CC(C)n1cnnc1-c1cccc(NC(=O)c2cc3ccc(F)cc3[nH]2)n1 (2.5 µM),inactive: 0,inactive: 0,inactive: 0,inactive: 0,inactive: 0,inactive: 0,inactive: 0,inactive: 0,inactive: 0,inactive: 0
CNC(=O)c1nnc(NC(=O)C2CC2)cc1Nc1cccc(-c2ncn(C)n2)c1OC [Deucravacitinib] (10 µM),inactive: 0,inactive: 0,inactive: 0,inactive: 0,inactive: 0,inactive: 0,inactive: 0,inactive: 0,inactive: 0,inactive: 0
CNC[C@@H](NC(=O)c1ccc(-c2nc([C@H]3CC[C@H](O)[C@@H](F)C3)cnc2N)cc1F)c1cc(F)cc(Br)c1 [Rineterkib] (10 µM),inactive: 0,inactive: 0,inactive: 0,inactive: 0,inactive: 0,inactive: 0,inactive: 0,inactive: 0,inactive: 0,inactive: 0
Nc1n[nH]c(N)c1N=Nc1ccc(O)cc1 (10 µM),inactive: 0,inactive: 0,inactive: 0,inactive: 0,inactive: 0,inactive: 0,inactive: 0,inactive: 0,inactive: 0,inactive: 0
O=C1NCCSc2c1sc1ccc(O)cc21 (2.5 µM),inactive: 0,inactive: 0,inactive: 0,inactive: 0,inactive: 0,inactive: 0,inactive: 0,inactive: 0,inactive: 0,inactive: 0
Cc1nc(NC(=O)N2CCC[C@H]2C(N)=O)sc1-c1csc(C(C)(C)C)n1 (10 µM),inactive: 0,inactive: 0,inactive: 0,inactive: 0,inactive: 0,inactive: 0,inactive: 0,inactive: 0,inactive: 0,inactive: 0
O=S(=O)(c1cccc2c(Cl)cccc12)N1CCCNCC1 (10 µM),inactive: 0,inactive: 0,inactive: 0,inactive: 0,inactive: 0,inactive: 0,inactive: 0,inactive: 0,inactive: 0,inactive: 0
CC(C)n1nc(C#Cc2ccccc2)c2c(N)ncnc21 (10 µM),inactive: 0,inactive: 0,inactive: 0,inactive: 0,inactive: 0,inactive: 0,inactive: 0,inactive: 0,inactive: 0,inactive: 0
CCn1c(-c2nonc2N)nc2c(C#CCO)ncc(OCCCN)c21 [AKT Kinase Inhibitor] (10 µM),inactive: 0,inactive: 0,inactive: 0,inactive: 0,inactive: 0,inactive: 0,inactive: 0,inactive: 0,inactive: 0,inactive: 0
O=c1cc(N2CCOCC2)oc2c1ccc1ccccc12 (2 µM),inactive: 0,inactive: 0,inactive: 0,inactive: 0,inactive: 0,inactive: 0,inactive: 0,inactive: 0,inactive: 0,inactive: 0
Cc1cc(=O)[nH]c(=S)[nH]1 [Methylthiouracil] (10 µM),inactive: 0,inactive: 0,inactive: 0,inactive: 0,inactive: 0,inactive: 0,inactive: 0,inactive: 0,inactive: 0,inactive: 0
O=C(Nc1nc2cccc(-c3ccc(CN4CCS(=O)(=O)CC4)cc3)n2n1)C1CC1 [Filgotinib] (2.5 µM),inactive: 0,inactive: 0,inactive: 0,inactive: 0,inactive: 0,inactive: 0,inactive: 0,inactive: 0,inactive: 0,inactive: 0
